Measurements reported in patent US9988405B2, “O-phenyl chalcone compounds and uses thereof” (Neopanora Bio-technology (Zhuhai) Ltd., priority 2014, dated 2018).

Columns and labels:
Assay type in all cases: cell-based
[1] = system: human nasopharyngeal carcinoma cells CNE2; experiment: SRB anti-proliferative assay, CNE2; details: CNE-2, 48 h, read-out: Anti-proliferative IC50, CNE2
Method: (§1) The present example evaluated the anti-tumor activity of the molecules provided by the present invention. The present example mainly used a method with SRB (sulforhodamine B) dying, in which proteins in the cell were stained with SRB dye to determine protein content in the cell so as to characterize cell growth density. Firstly, the test compound was formulated into a stock solution (10 mM), which was stored at 4° C. in a refrigerator. Prior to beginning the assay, the stock solution was diluted with DMSO into a series of different concentrations. The required concentrations were obtained by diluting with complete growth medium. Well growing cells were seeded in a 96-well plate (5000 cells/well, 100 uL) and cultured in an incubator at 37° C., 5% CO2, and 90% RH. 24 h later, the prepared compound solution (100 μL) was slowly added to cell solution in the 96-well plate, and the well with DMSO (final concentration 0.5%) instead of the drug was used as a drug free control. The plate was incubated for 48 h. In addition, a day 0 plate that was drug free was directly detected after cell seeded in the plate for 24 h. The 96-well plate was taken out and added with trichloroacetic acid (50 μL, final concentration 10%). […]
(§2) The plate was washed with ultrapure water and air-dried. […] The optical density (OD) was recorded on a TECAN Infinite M200 Pro multimode reader at 515 nm. […]

[2] = system: human lung cancer cells A549; experiment: SRB anti-proliferative assay, A549; details: A549, 48 h, read-out: Anti-proliferative IC50, A549
Method: as §1, §2

[3] = system: human breast cancer cells MCF7; experiment: SRB anti-proliferative assay, MCF-7; details: MCF7, 48 h, read-out: Anti-proliferative IC50, MCF-7
Method: as §1, §2

[4] = system: human colon cancer cells SW480; experiment: SRB anti-proliferative assay, SW480; details: SW480, 48 h, read-out: Anti-proliferative IC50, SW480
Method: as §1, §2

SMILES: COc1cc2c(c(OC)c1OC)-c1ccc(OC)c(=O)cc1[C@@H](NC(C)=O)CC2 [COL, colchicine, reference compound]
- IC50 [1]: 34 nM
- IC50 [2]: 36 nM
- IC50 [3]: 19 nM
- IC50 [4]: 33 nM
